Results on one compound are retold here after article PMC10575921 (Nature Communications, 2023).

This experiment concerns human peripheral blood mononuclear cells (PBMCs). Nature of the experiment: cells. The following applies: PBMC.

Compound `CN[C@@H]1C[C@H]2O[C@@](C)([C@@H]1OC)n1c3ccccc3c3c4c(c5c6ccccc6n2c5c31)C(=O)NC4` [staurosporine] displayed an IC50 of 550 nM.

What is called IC50 is the midpoint of a concentration-inhibition curve. Lower therefore signals greater potency in that assay.
